Drawing on publication PMC7962367, this text covers binding for one substance.

Sequences of proteins named here, by UniProt entry; tags and fusion partners are left off.
UniProt P63086: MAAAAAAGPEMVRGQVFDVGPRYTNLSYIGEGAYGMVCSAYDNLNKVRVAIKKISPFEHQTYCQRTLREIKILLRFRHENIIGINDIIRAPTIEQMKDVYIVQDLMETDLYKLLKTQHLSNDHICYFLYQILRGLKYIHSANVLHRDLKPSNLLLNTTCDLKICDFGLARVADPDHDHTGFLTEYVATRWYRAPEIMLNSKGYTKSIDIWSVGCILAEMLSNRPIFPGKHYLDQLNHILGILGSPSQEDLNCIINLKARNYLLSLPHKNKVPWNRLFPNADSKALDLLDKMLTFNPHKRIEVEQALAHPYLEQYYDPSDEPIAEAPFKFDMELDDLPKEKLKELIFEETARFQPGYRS

These are yes or no findings as the source states them, for the method shown. In cells and extracts the contact can be indirect. Some results given as binding are weak or reduced against the parent protein; the word gives no strength.

The assay addresses T1, endogenous USP15 (rat (endogenous in rat articular chondrocytes)) (UniProt Q9R085).
T1 sequence: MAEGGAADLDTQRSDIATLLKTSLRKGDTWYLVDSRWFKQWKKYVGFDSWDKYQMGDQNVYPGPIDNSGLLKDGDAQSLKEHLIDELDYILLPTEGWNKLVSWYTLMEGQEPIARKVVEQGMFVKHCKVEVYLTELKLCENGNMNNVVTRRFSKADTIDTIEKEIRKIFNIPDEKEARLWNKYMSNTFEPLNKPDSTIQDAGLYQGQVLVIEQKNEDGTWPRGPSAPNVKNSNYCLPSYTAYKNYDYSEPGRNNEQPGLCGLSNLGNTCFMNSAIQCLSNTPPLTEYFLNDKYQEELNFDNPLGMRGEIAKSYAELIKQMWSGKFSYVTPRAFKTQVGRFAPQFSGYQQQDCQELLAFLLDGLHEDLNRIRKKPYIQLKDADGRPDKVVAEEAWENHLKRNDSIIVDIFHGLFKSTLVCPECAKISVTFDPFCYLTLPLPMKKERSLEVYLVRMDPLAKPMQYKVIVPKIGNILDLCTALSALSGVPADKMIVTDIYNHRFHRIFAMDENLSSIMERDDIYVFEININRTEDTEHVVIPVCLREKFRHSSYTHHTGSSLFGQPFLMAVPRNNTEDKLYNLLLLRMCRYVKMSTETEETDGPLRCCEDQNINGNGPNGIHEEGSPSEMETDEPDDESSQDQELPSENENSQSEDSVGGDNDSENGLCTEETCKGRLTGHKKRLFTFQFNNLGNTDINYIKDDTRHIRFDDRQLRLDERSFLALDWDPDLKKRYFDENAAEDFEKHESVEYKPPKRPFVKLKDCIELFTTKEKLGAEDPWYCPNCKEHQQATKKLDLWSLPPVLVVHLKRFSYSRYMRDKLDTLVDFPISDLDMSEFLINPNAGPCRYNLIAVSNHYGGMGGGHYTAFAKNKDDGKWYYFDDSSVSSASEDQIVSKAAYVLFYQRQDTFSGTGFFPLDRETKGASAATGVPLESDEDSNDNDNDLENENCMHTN
The assay is described as follows: co-IP; rat articular chondrocytes lysed in RIPA buffer; immunoprecipitation with anti-USP15 antibody and Protein A/G PLUS-Agarose overnight at 4 °C, four washes in RIPA; blots with anti-USP15 or anti-ERK2; IgG as negative control.

Take “endogenous ERK2 (from UniProt P63086 1-358) (enzyme)”: the binding entry is “binds”.
